PubChem BioAssay AID1259308, NCATS – 2017

Screen: 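Genes whose loss raises luciferase production in HEK293 cells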 (primary screen)
System: human HEK293 embryonic kidney cells stably expressing firefly luciferase (HEK-CMV-Luc2-Hygro)
Reagents: single siRNA against human genes, 0.8 pmol siRNA per well
Timing: 72 h
Measured: 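Reporter luminescence and viable-cell signal on separate replicate plates, given as percent of non-targeting control and median/MAD z-scores, plus per-cell luciferase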
Direction: total luciferase, z-score and total luciferase, % of control: higher = more reporter protein produced
Active means: 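Active when the median/MAD z-score for overall luciferase is greater than 3; a gene was taken forward for validation with new siRNAs if at least two of its three siRNAs passed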
Meaning of the calls: active = raised luciferase; inactive = no rise
Here is an unselected part of about 59,000 deposited reagents. Of all reagents, about 1,510 (2.6%) got an active call. 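Calls use total luciferase alone and ignore viability, so some active siRNAs may act by altering cell number.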 Further read-outs or replicates are left out here.

The first 2 entries as a preview:
JADE1 [SID160749857] — total luciferase, z-score: -0.0472; total luciferase, % of control: 80.9; Call: inactive
JADE1 [SID160749858] — total luciferase, z-score: 1.73; total luciferase, % of control: 116; Call: inactive

The list itself, from the first entry:
JADE1 [SID160749857] — total luciferase, z-score: -0.0472; total luciferase, % of control: 80.9; Call: inactive
JADE1 [SID160749858] — total luciferase, z-score: 1.73; total luciferase, % of control: 116; Call: inactive
JADE1 [SID160749859] — total luciferase, z-score: 0.217; total luciferase, % of control: 86.2; Call: inactive
IZUMO1R [SID160725254] — total luciferase, z-score: 1.08; total luciferase, % of control: 103; Call: inactive
IZUMO1R [SID160725255] — total luciferase, z-score: -2.12; total luciferase, % of control: 39.8; Call: inactive
IZUMO1R [SID160766460] — total luciferase, z-score: 0.276; total luciferase, % of control: 87.4; Call: inactive
OR9Q1 [SID160761413] — total luciferase, z-score: -1.11; total luciferase, % of control: 59.9; Call: inactive
OR9Q1 [SID160761414] — total luciferase, z-score: 0.658; total luciferase, % of control: 95; Call: inactive
OR9Q1 [SID160761415] — total luciferase, z-score: 0.765; total luciferase, % of control: 97.1; Call: inactive
BCL7B [SID160721860] — total luciferase, z-score: -0.143; total luciferase, % of control: 79; Call: inactive
BCL7B [SID160721861] — total luciferase, z-score: -2.37; total luciferase, % of control: 34.7; Call: inactive
BCL7B [SID160735203] — total luciferase, z-score: -0.181; total luciferase, % of control: 78.3; Call: inactive
OR6F1 [SID160764691] — total luciferase, z-score: 1.48; total luciferase, % of control: 111; Call: inactive
OR6F1 [SID160764692] — total luciferase, z-score: 0.0458; total luciferase, % of control: 82.8; Call: inactive
OR6F1 [SID160764693] — total luciferase, z-score: -0.583; total luciferase, % of control: 70.3; Call: inactive
MRPL39 [SID160741587] — total luciferase, z-score: -0.736; total luciferase, % of control: 67.3; Call: inactive
MRPL39 [SID160741588] — total luciferase, z-score: 0.649; total luciferase, % of control: 94.8; Call: inactive
MRPL39 [SID160741589] — total luciferase, z-score: -0.986; total luciferase, % of control: 62.3; Call: inactive
RCC1 [SID160742447] — total luciferase, z-score: 1.84; total luciferase, % of control: 118; Call: inactive
RCC1 [SID160742458] — total luciferase, z-score: 1.55; total luciferase, % of control: 113; Call: inactive
RCC1 [SID160742469] — total luciferase, z-score: 0.101; total luciferase, % of control: 83.9; Call: inactive
